Source: PMC8654949
No constants are given. Whether binding was seen depends on the method and setting. Binding seen in cells or lysates may run through a third protein. A result given as binding can be weak or reduced; the word gives no strength.

Chains of the proteins cited; added tags and fusions are not shown. Lines headed by an entry give the natural chain unless they say otherwise; changes in a name come on top.
UniProt Q86X51: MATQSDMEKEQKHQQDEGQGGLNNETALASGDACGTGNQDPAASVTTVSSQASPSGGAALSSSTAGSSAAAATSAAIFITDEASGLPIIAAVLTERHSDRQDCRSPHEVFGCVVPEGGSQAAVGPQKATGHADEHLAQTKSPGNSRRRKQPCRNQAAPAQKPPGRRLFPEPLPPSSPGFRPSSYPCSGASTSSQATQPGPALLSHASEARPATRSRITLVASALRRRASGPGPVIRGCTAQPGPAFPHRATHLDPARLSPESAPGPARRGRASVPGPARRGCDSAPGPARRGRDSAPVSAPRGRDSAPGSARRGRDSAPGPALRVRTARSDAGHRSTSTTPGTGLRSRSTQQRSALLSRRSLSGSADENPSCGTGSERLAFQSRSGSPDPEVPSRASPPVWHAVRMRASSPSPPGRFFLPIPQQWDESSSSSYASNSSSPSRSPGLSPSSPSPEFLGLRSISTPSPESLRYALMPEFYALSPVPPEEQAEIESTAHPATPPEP
UniProt A6NHR9: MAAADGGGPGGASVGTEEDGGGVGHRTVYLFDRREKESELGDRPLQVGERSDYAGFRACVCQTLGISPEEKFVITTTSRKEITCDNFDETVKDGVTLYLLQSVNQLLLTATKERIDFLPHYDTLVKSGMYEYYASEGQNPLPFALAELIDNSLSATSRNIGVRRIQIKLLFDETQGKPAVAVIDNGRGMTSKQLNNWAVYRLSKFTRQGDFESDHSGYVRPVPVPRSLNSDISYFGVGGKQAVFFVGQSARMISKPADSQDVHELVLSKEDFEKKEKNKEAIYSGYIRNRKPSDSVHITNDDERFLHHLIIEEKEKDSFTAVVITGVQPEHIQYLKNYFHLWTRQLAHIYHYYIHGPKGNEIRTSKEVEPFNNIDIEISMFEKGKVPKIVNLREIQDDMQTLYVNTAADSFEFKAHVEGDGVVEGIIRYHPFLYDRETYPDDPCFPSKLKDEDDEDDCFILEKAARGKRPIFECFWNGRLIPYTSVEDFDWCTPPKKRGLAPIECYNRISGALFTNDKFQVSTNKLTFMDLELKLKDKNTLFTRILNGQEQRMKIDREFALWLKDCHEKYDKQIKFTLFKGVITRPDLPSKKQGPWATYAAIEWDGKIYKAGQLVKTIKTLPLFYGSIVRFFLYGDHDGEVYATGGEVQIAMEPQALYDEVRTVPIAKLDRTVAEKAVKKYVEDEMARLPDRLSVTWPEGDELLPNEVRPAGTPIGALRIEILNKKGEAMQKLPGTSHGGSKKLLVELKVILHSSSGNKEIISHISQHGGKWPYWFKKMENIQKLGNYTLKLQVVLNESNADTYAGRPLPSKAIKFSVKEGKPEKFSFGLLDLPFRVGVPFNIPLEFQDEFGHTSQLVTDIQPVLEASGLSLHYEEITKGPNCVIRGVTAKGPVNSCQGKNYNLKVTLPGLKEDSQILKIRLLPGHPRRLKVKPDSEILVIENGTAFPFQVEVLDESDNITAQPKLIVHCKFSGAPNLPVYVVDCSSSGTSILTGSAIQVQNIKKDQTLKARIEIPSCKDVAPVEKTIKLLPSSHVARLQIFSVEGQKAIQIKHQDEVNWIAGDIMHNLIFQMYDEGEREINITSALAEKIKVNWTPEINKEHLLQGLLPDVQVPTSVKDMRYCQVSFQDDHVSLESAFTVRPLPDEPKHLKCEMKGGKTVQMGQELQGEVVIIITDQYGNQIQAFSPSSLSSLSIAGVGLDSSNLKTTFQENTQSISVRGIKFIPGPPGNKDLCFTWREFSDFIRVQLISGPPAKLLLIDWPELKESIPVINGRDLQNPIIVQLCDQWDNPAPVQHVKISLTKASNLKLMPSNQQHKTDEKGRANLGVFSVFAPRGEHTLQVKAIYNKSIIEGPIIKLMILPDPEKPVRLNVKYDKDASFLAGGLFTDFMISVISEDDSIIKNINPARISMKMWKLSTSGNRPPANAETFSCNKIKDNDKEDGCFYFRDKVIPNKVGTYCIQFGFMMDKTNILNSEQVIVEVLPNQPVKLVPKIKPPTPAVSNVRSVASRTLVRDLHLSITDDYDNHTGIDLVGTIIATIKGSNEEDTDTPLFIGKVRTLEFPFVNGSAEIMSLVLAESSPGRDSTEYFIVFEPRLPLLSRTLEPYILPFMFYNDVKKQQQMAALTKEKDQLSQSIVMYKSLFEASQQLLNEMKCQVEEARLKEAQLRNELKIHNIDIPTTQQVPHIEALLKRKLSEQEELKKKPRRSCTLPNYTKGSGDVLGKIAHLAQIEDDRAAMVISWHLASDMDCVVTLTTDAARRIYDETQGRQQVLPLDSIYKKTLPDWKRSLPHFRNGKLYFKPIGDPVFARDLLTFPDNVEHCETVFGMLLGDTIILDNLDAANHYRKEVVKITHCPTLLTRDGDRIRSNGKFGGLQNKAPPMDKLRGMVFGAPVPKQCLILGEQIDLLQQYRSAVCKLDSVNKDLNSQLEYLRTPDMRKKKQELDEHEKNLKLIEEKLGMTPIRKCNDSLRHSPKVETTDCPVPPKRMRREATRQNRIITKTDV

Target: endogenous EZHIP of U2OS cells (form of higher molecular weight) (human (endogenous in U2OS)) (UniProt Q86X51)
Assay: co-IP; endogenous proteins; antibody (1 µg) conjugated to Dynabeads protein A and protein G (3:1); lysates of HEK293T, U2OS, HeLa cells or control myoblasts; western blot

binding: binds
Substance: endogenous SMCHD1 (from UniProt A6NHR9 1-2005)
